{"source": "patent US20240131207A1", "about": "“NUCLIDE-LABELED INHIBITORY PEPTIDE, AND PREPARATION METHOD THEREFOR AND USE THEREOF” (SUZHOU UNIVERSITY, priority 2022, published 2024)", "test_system": "B16F10 tumor model", "assay": "Correlation of 68Ga-AP1 PET uptake (T/N) with efficacy of BMS-1 immunotherapy in melanoma B16F10 model", "type": "in vivo, mice", "details": "68Ga-AP1 imaging on day 7 or 10 during BMS-1 treatment", "note": "*: point of attachment. DOTA = O=C(O)CN1CCN(CC(=O)O)CCN(CC(=O)*)CCN(CC(=O)O)CC1", "data": [{"substance": "{DOTA}-YGRKKRRQRRRCASTEEKWARLARRIAGAGGVTLDGFGGCA-OH (N-terminus assumed; cysteines drawn unpaired) [^68Ga-AP1, metal not drawn]", "values": [{"measurement": "T/N ratio (tumor uptake/maximum uptake in contralateral muscle), immunotherapy-ineffective group", "setting": "immunotherapy-ineffective group", "result": "2.32±0.5997"}, {"measurement": "T/N ratio (tumor uptake/maximum uptake in contralateral muscle), immunotherapy-effective group", "setting": "tumor volume < 1000 mm^3 on day 16", "result": "1.11±0.2362"}]}]}
